Results are given in words; binding and its absence hold for the method and conditions named. Binding seen in cells or lysates may run through a third protein. A yes stands for co-enrichment or nearness to the bait. Other partners may have been found.
B1: Brahma associated protein 55kD (Bap55), endogenous (protein, UniProt Q7K012 1-425)
chain: MSGGTMLYGGDEIGALVFDPGHHSLRVGYAQEDSPKAEIPSVVGIGAAPETNLDPETKTDNNATPNNADQRKFYVDTNYVTVPRSNMEVQTYMKDGMIDNWDLFEKVIDYAYANVIQSEPEYHPVLFSEASWNVRNNREKLTELMFEKYNVPAFFLVKNAVLAAFSSGRATALVVDSGATHTSAVPVHEGYVLSQAVVKSPLGGDFLSRQCRQHLEKHGIDLSPVYKIASKDVVKERDNGRFTLRKLPENLTQSWQNYMLQLMMQDFQMNVLQVLENPFDERVAAQIPTVHYEFPNGYHQDFGSERFKIAESLFDNAMLGAGQLASTSVGMCDADVRLSLFGSVVVTGGNTLLQGFPERLNRDLQLRAPSNTRLKMISANGSVERRFGAWIGGSILASIGTFQQMWISSQEYEEAGKSQVERKCP

Chains of the proteins cited; added tags and fusions are not shown.
UniProt P30052: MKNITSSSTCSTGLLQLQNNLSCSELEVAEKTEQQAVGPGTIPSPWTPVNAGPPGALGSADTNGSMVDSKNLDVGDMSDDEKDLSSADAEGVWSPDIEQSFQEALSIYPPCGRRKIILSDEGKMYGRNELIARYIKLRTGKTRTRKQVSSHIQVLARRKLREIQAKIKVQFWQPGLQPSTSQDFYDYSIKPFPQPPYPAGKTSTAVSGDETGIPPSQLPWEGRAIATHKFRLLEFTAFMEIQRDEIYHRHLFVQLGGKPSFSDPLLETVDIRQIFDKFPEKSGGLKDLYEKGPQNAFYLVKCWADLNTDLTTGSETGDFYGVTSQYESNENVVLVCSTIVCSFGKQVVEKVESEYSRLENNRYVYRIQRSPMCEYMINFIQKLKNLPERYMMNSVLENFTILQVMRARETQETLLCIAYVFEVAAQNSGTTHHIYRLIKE
UniProt Q8IN94: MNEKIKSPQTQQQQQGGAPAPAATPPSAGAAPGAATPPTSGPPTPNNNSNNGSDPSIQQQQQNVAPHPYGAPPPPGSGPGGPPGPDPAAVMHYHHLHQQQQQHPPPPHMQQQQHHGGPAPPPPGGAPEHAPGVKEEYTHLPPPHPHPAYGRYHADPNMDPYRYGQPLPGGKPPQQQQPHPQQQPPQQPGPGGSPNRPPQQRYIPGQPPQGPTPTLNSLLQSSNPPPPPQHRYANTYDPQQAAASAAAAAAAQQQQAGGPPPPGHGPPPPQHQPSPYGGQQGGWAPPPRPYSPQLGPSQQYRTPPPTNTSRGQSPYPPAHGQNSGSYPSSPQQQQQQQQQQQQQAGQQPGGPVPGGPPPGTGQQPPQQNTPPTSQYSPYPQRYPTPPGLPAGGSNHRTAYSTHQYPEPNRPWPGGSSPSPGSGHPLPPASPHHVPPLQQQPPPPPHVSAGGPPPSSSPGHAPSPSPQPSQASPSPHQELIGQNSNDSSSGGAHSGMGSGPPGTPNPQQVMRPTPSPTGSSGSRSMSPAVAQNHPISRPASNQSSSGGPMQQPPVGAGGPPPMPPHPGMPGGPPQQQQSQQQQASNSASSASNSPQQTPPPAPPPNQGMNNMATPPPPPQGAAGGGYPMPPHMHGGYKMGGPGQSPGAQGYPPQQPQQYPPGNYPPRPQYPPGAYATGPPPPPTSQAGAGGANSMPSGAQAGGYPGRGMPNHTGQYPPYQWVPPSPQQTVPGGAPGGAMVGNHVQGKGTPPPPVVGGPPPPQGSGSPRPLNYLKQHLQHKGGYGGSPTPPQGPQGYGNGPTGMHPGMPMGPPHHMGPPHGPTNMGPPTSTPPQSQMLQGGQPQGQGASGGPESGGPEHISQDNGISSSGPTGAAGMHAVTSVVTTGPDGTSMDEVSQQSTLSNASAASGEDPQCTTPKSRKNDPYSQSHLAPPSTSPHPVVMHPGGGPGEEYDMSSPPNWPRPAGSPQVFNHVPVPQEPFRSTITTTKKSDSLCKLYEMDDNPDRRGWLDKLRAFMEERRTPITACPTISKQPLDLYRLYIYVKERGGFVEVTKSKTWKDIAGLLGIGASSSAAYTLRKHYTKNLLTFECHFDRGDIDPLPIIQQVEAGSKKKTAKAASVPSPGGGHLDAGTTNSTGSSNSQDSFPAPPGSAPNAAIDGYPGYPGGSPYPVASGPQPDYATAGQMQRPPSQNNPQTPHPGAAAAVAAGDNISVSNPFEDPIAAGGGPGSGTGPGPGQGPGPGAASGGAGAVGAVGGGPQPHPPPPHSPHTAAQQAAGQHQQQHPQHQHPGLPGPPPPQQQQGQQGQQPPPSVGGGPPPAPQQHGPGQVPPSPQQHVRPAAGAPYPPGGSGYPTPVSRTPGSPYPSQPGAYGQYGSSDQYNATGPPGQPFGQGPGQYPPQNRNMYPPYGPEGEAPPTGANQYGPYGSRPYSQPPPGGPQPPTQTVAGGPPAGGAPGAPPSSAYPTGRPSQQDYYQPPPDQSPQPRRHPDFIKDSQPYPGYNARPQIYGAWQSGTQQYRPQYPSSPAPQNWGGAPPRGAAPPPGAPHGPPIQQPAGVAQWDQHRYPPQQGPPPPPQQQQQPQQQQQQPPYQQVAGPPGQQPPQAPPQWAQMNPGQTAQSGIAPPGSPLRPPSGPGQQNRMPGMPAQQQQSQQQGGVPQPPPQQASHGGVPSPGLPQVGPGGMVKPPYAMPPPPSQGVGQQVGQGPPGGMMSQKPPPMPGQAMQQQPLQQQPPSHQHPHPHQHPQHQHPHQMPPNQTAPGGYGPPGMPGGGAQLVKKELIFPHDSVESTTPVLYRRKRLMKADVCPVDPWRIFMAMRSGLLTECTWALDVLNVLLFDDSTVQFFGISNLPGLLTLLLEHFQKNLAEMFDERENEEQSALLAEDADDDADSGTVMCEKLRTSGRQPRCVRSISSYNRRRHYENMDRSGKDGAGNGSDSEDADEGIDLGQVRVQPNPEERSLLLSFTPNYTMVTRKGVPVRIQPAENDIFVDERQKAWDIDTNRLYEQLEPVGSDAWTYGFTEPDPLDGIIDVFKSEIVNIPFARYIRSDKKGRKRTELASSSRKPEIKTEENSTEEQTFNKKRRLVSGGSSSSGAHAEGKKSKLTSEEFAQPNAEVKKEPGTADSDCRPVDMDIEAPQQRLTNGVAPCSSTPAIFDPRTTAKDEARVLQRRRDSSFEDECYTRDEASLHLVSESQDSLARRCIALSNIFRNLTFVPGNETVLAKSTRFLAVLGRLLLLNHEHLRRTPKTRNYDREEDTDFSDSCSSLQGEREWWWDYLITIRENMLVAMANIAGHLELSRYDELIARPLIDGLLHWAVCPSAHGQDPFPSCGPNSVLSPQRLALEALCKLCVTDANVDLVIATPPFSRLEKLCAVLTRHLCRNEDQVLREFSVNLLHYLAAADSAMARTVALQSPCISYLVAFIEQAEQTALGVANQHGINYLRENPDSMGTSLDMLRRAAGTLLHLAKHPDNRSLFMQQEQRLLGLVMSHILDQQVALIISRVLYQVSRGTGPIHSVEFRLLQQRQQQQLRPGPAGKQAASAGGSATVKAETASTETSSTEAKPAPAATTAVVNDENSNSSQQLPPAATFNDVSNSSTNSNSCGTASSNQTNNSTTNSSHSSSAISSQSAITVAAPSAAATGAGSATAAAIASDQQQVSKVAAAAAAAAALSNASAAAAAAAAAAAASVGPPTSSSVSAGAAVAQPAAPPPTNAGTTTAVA
UniProt P25439: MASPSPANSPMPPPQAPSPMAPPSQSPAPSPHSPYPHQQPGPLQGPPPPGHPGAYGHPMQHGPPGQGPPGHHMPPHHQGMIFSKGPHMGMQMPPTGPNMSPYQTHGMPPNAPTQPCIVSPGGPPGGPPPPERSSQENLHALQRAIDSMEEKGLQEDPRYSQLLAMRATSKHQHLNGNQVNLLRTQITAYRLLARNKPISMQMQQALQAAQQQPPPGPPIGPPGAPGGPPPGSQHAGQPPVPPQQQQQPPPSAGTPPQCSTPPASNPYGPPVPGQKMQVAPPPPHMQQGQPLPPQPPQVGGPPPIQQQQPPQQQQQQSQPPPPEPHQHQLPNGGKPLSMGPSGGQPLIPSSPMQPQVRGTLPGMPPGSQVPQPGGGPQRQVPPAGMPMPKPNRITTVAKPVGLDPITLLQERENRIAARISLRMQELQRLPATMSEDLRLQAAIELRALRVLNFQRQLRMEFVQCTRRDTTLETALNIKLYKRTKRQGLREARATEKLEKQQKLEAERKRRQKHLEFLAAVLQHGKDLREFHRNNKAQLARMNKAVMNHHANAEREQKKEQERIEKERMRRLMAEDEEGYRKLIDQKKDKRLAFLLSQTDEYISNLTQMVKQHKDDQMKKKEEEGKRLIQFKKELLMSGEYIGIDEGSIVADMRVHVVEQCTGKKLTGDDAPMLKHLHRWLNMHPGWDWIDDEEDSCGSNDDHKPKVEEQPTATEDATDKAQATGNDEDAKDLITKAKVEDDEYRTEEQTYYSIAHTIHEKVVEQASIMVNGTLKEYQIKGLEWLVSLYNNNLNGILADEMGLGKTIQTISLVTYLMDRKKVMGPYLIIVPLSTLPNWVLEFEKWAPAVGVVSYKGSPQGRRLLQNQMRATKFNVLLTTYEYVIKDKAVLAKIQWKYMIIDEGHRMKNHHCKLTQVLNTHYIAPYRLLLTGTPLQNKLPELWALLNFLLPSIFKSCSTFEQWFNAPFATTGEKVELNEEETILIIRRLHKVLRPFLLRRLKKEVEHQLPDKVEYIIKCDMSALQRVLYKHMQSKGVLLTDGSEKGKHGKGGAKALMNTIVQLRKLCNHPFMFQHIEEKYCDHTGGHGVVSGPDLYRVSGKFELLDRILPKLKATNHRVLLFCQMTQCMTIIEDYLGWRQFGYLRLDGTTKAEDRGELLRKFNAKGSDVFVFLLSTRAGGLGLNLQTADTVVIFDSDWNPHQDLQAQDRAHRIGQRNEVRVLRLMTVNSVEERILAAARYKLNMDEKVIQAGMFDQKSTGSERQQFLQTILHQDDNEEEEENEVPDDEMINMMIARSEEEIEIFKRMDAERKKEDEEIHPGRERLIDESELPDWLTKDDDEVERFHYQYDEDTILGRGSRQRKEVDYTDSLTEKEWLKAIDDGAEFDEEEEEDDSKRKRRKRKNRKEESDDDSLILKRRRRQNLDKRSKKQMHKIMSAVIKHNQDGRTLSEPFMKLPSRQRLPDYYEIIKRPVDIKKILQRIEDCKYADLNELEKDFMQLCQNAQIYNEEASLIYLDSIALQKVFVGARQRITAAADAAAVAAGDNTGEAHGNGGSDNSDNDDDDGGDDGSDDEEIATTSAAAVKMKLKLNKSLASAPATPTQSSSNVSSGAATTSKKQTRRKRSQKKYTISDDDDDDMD
UniProt Q9VF03: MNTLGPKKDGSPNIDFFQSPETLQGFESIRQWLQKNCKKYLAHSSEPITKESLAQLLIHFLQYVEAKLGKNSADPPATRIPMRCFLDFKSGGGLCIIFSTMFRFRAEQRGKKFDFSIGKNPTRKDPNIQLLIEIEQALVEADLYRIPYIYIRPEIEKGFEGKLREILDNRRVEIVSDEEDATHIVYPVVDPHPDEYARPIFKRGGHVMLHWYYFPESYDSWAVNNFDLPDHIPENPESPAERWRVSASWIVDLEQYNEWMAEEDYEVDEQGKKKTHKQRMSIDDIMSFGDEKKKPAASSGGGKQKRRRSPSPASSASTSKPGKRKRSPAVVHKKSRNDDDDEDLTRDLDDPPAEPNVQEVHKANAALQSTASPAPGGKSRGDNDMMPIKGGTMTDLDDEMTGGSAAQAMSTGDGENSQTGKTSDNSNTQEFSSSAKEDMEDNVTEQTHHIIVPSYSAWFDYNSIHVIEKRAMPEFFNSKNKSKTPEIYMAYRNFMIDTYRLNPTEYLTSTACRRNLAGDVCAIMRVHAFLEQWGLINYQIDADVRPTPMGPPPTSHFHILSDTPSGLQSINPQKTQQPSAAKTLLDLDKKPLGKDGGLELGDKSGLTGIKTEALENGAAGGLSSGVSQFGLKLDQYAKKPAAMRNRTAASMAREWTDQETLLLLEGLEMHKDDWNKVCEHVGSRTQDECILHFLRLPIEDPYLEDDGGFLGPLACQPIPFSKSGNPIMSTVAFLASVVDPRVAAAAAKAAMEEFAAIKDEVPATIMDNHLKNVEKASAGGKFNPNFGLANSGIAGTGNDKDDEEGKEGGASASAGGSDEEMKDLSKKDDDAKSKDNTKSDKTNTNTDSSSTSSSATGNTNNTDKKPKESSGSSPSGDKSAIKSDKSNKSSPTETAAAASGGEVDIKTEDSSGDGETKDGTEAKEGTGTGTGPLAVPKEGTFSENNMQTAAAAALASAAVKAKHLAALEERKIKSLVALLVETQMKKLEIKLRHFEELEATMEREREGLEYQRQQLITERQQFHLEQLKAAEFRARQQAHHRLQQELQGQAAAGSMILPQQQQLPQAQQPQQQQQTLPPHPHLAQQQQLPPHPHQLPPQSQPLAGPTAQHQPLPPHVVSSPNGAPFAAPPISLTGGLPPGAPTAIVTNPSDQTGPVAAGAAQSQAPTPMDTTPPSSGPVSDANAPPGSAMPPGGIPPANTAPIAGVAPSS

Tests used:
[1] = target: T1, Yorkie (Yki), endogenous (Drosophila (endogenous in S2 cells)) (UniProt Q45VV3); experiment: affinity purification with mass spectrometry; endogenous Yki immunoprecipitated from S2 cell lysate with rabbit anti-Yki antibody; IP sample run on SDS-PAGE, bands absent in the IgG IP control selected for MS
T1 sequence: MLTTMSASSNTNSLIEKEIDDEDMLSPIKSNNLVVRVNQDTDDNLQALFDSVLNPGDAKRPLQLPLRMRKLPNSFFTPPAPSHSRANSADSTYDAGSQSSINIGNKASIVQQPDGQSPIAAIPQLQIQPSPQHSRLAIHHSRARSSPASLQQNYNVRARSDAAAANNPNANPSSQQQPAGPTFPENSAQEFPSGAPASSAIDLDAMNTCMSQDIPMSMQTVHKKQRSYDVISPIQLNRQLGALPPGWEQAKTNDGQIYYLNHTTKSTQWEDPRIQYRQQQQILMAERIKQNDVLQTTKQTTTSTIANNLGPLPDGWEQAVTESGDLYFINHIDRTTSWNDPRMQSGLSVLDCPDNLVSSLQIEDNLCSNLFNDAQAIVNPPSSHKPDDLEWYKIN

[2] = target: Scalloped (Sd), endogenous (Drosophila (endogenous in S2 cells)) (UniProt P30052); experiment: affinity purification with mass spectrometry; endogenous Sd immunoprecipitated from S2 cell lysate with rabbit anti-Sd antibody; total Sd IP sample and serum control sent for MS directly

Molecule	binding [1]	binding [2]
Osa, endogenous (from UniProt Q8IN94 1-2716)	binds	
Brahma (Brm), endogenous (from UniProt P25439 1-1638)	binds	binds
Brahma associated protein 155 kDa (Mor), endogenous (from UniProt Q9VF03 1-1209)		binds
B1		binds
